These are yes or no findings as the source states them, for the method shown. In cells and extracts the contact can be indirect. Some entries that bind do so weakly or less than the wild type. Tags and fused reporters may be left off the sequences shown.
Target: PI3K p110α (PIK3CA) wild type, LgBiT fusion, in live H358 cells (UniProt P42336)
Assay: split reporter

Protein sequences, listed by entry. Tags and fused reporters are not part of them.
UniProt P42336: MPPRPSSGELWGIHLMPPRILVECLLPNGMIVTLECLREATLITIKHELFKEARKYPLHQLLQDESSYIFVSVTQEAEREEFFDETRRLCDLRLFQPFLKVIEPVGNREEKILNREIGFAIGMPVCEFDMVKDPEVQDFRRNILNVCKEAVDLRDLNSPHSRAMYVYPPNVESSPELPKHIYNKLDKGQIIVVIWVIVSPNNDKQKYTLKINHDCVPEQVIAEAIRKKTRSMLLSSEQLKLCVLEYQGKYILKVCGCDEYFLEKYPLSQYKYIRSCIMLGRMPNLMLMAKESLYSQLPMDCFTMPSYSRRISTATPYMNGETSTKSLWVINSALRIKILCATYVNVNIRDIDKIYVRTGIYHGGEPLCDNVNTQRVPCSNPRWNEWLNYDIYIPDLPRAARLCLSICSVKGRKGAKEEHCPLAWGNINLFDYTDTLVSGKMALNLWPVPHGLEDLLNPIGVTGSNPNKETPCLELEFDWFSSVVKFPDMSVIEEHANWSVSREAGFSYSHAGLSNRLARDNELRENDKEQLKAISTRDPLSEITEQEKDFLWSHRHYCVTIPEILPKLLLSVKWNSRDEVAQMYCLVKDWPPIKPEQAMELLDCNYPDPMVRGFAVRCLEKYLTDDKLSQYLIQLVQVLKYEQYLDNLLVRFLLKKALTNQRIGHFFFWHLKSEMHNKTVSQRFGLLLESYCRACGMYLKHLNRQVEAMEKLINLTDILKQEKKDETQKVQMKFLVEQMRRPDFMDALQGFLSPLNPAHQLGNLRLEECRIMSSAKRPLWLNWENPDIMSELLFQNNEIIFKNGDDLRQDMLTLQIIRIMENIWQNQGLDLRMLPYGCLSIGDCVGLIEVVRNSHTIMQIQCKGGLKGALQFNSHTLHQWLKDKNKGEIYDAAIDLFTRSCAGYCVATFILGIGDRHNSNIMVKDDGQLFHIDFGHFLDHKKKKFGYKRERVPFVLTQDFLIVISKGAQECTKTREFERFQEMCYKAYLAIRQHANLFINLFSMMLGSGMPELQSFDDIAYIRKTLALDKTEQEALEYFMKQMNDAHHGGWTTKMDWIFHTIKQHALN

“MRAS, SmBiT fusion, in live H358 cells (from UniProt O14807 1-208)” was tested, and the binding was “binds”.

B1: RRAS, SmBiT fusion, in live H358 cells (protein, UniProt P10301 1-218)
chain: MSSGAASGTGRGRPRGGGPGPGDPPPSETHKLVVVGGGGVGKSALTIQFIQSYFVSDYDPTIEDSYTKICSVDGIPARLDILDTAGQEEFGAMREQYMRAGHGFLLVFAINDRQSFNEVGKLFTQILRVKDRDDFPVVLVGNKADLESQRQVPRSEASAFGASHHVAYFEASAKLRLNVDEAFEQLVRAVRKYQEQELPPSPPSAPRKKGGGCPCVLL
With B1 the binding was “binds”.

B2: RAS2 (TC21), SmBiT fusion, in live H358 cells (protein, UniProt P62070 1-204)
chain: MAAAGWRDGSGQEKYRLVVVGGGGVGKSALTIQFIQSYFVTDYDPTIEDSYTKQCVIDDRAARLDILDTAGQEEFGAMREQYMRTGEGFLLVFSVTDRGSFEEIYKFQRQILRVKDRDEFPMILIGNKADLDHQRQVTQEEGQQLARQLKVTYMEASAKIRMNVDQAFHELVRVIRKFQEQECPPSPEPTRKEKDKKGCHCVIF
In the case of B2, the binding is reported as “binds”.

From article doi:10.1101/2024.12.17.629001
